From PubChem BioAssay AID493014 (National Center for Advancing Translational Sciences (NCATS), 2011)
This is one part of the list. Further columns of the screen follow, without active or inactive calls. Compounds called inactive in the main read-out are mostly missing here. The note in brackets gives the kind of curve behind each potency; many fits are weak.

Test: qHTS Assay to Find Inhibitors of Chronic Active B-Cell Receptor Signaling
Settings: ABC-DLBCL IkBa-CBG/CBR reporter, luminescence ratio (green luciferase fused to IkBa over red control in TMD8 lymphoma cells), 4 h
Procedure, shortened: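 Doxycycline induced both beetle luciferases in TMD8 lymphoma cells; IKK-driven degradation limits the IkappaBalpha-fused green signal, while red luminescence normalises for cell number and nonspecific effects. Compounds tested up to 46 uM, 4 hrs.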

[1] = measured here: CBR red luminescence, cell number
[2] = measured here: IkBa-CBG green luminescence

| SMILES | AC50 [1] | AC50 [2] |
| --- | --- | --- |
| COC(=O)CN(c1ccccc1F)S(=O)(=O)c1ccc(C)cc1 | 11.2 µM [rising, partial curve, poor fit] | – |
| O=C(COc1ccccc1Cl)Nc1ccc(N2CCCC2)cc1 | 2.51 µM [rising, full curve] | – |
| Cc1cc(C)c(O)c(-c2cc(C(=O)Nc3ccc(S(=O)(=O)N4CCOCC4)cc3)[nH]n2)c1 | 2.91 µM [falling, partial curve, poor fit] | – |
| COc1cccc(-c2noc(N)c2C#N)c1 | 0.891 µM [falling, full curve, poor fit] | – |
| O=C(c1ccc(Cl)nc1)N1CCN(C/C=C/c2ccccc2)CC1 | 31.6 µM [rising, single point] | – |
| Cc1ccc(C2C(C#N)=C(N)Oc3cc(C)oc(=O)c32)o1 (stereo not drawn) | 11.2 µM [falling, partial curve, poor fit] | 12.6 µM [rising, partial curve, poor fit] |
| Brc1ccc(C2=CC(c3cccs3)n3ncnc3N2)cc1 (stereo not drawn) | 4.47 µM [falling, partial curve] | – |
| CCOC(=O)c1sc(NC(=O)Cc2ccc(F)cc2)nc1C | 0.316 µM [falling, full curve, poor fit] | – |
| COCCOC(=O)CSc1ncccc1-c1nc2cc(C)c(C)cc2[nH]1 | 17.8 µM [falling, partial curve, poor fit] | – |
| C/C(Cn1cnc([N+](=O)[O-])n1)=N\NC(=O)c1cccc(F)c1 | 11.6 µM [falling, partial curve] | 32.6 µM [falling, partial curve, poor fit] |
| CCOC(=O)N1CCN(C(=O)CSCc2ccc(Br)cc2)CC1 | 22.4 µM [falling, single point] | – |
| COc1cc(/C=C/c2nc(-c3ccccc3O)n[nH]2)cc(OC)c1OC | 20.6 µM [falling, partial curve, poor fit] | – |
| CCc1nc2ccccc2c(C(=O)Oc2cccc3cccnc23)c1C | 2.82 µM [rising, partial curve, poor fit] | – |
| CCN1CCCC1CN(Cc1cc2ccc(C)cc2[nH]c1=O)C(=S)Nc1ccccc1C(=O)OC (stereo not drawn) | 2.82 µM [falling, partial curve] | – |
| COc1c(/C=N/NC(=O)c2ccccc2O)c(CCN(C)C(C)=O)cc2c1OCO2 | 7.31 µM [falling, partial curve] | – |
| NS(=O)(=O)c1ccc(NC(=O)c2c(F)cccc2Cl)cc1 | 31.6 µM [rising, single point] | – |
| COC(=O)N/N=C/c1ccc(OS(=O)(=O)c2ccc(C)cc2)c(OC)c1 | 17.8 µM [falling, single point] | – |
| CCn1c(SCc2nc3scc(-c4ccccc4)c3c(=O)[nH]2)nnc1-c1cccs1 | 32.6 µM [falling, single point] | – |
| O=C(CCn1c(=O)c2ccccc2n(Cc2cccnc2)c1=O)NCc1ccc2c(c1)OCO2 | 29.1 µM [rising, single point] | – |
| CCc1ccc2c(c1)cc(CN(Cc1ccco1)C(C)=O)c1nnnn12 | 15.8 µM [rising, single point] | – |

| SMILES | AC50 [1] | AC50 [2] |
| --- | --- | --- |
| Cc1ccc(-c2csc(NC(=O)CCNC(=O)c3ccccc3Cl)n2)cc1 | 23.1 µM [falling, single point] | – |
| CC(=O)Nc1ccc(S(=O)(=O)N(C)CC(=O)OCC(=O)Nc2ccc3c(c2)OCO3)cc1 | 13 µM [rising, partial curve, poor fit] | – |
| CCOc1cc(C2C(C#N)=C(N)Oc3cc(N)ccc32)ccc1O (stereo not drawn) | 35.5 µM [falling, single point] | – |
| CC1CCN(c2ccc(NC(=O)c3ccccc3[N+](=O)[O-])cc2)CC1 | 3.98 µM [falling, full curve] | – |
| CCOC(=O)NC(=O)CSc1nnnn1-c1ccc(C)cc1 | 16.4 µM [rising, single point] | – |
| Cc1cc(Br)ccc1NCc1ccccn1 | 3.16 µM [rising, single point] | – |
| CCOc1ccc(Cl)cc1S(=O)(=O)N1CCN(c2ccc(C)c(C)c2)CC1 | 29.1 µM [rising, single point] | 23.1 µM [falling, partial curve, poor fit] |
| CC1(C)OC(=O)CC1C(=O)NCc1ccccc1 (stereo not drawn) | 0.731 µM [rising, full curve, poor fit] | – |
| COc1cccc2sc(N(CCCN(C)C)C(=O)C(c3ccccc3)c3ccccc3)nc12 | 7.08 µM [falling, full curve] | – |
| COc1ccc(C(=O)Nc2c(N)nc(SCC(=O)NCC3CCCO3)[nH]c2=O)cc1 (stereo not drawn) | 0.631 µM [falling, full curve, poor fit] | – |
| CC1CC(C)CN(C(=O)C(Cc2ccccc2)NC(=O)c2ccccc2)C1 (stereo not drawn) | 18.4 µM [falling, partial curve, poor fit] | – |
| Cc1ccc(-n2ncc3c2CCCC3NC(=O)c2ocnc2C)cc1C (stereo not drawn) | 1.26 µM [rising, full curve, poor fit] | – |
| Nc1ncnc2c1ncn2[C@@H]1O[C@H](CNS(=O)(=O)c2ccc3c(c2)CCN(C(=O)C(F)(F)F)C3)[C@@H](O)[C@H]1O | 23.1 µM [rising, single point] | – |
| O=C(O)CCC(=O)Nc1nc(-c2ccccc2)cs1 | 23.1 µM [falling, single point] | – |
| O=C(COC(=O)/C=C/c1ccco1)NCCc1ccccc1 | 11.2 µM [rising, partial curve, poor fit] | – |
| Cc1csc2c(N(C)CCO)ncnc12 | 3.55 µM [rising, single point] | – |
| CC(=O)Nc1cccc(NC(=O)c2ccc3[nH]c(C)c(C)c3c2)c1 | 1 µM [falling, partial curve] | – |
| O=C(CCc1nc2ccccc2[nH]1)Nc1ccc(F)cc1 | 32.6 µM [falling, partial curve, poor fit] | – |
| Cc1nc2ccc(NC(=O)N3CCN(c4ccccn4)CC3)cc2s1 | 0.517 µM [falling, full curve, poor fit] | – |
| COc1ccc(-n2nc(C(=O)NCC(=O)N3CCCCCC3)c3ccccc3c2=O)cc1Cl | 31.6 µM [falling, single point] | – |

An excerpt from above in order of length of the SMILES, low to high.

| SMILES | AC50 [1] | AC50 [2] |
| --- | --- | --- |
| O=C(COC(=O)/C=C/c1ccco1)NCCc1ccccc1 | 11.2 µM [rising, partial curve, poor fit] | – |
| COc1ccc(C(=O)Nc2c(N)nc(SCC(=O)NCC3CCCO3)[nH]c2=O)cc1 (stereo not drawn) | 0.631 µM [falling, full curve, poor fit] | – |
| Nc1ncnc2c1ncn2[C@@H]1O[C@H](CNS(=O)(=O)c2ccc3c(c2)CCN(C(=O)C(F)(F)F)C3)[C@@H](O)[C@H]1O | 23.1 µM [rising, single point] | – |
